PubChem BioAssay AID602196 | INSERM, 2012
Screen: 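Genes whose knock-down alters cisplatin killing of lung cancer cells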. Cell system: human A549 lung cancer cells. Knock-down reagent: siRNA pair against human genes. Duration: 48 h transfection before cisplatin; time from cisplatin to read-out not stated. Conditions: cisplatin at a dose killing half of control-siRNA cells; exact dose and duration not given. Read-out: 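Cisplatin cell death as a shift from the 50% death seen with control siRNA; siRNAs toxic or growth-blocking alone scored 0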. Direction: two-siRNA summed score (-2 to +2): higher = both siRNAs protect from cisplatin killing; -2 means both sensitise; mean protection from cisplatin (shift in death) and protection from cisplatin (shift in death), siRNA C and protection from cisplatin (shift in death), siRNA D: higher = protection from cisplatin killing. Rule for the call: 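siRNAs harmful alone (LDH or WST-1) get 0; others get +1 for less and -1 for more cisplatin killing; genes are active when the two siRNAs give the same sign, summing to ±2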. Calls: active = both siRNAs shift cisplatin killing the same way; inactive = no consistent shift, or siRNA harmful alone.
The deposit covers about 23,000 reagents; this is an unselected part. 455 of them (2%) were called active. 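Active includes both protection and sensitisation; some change values fall well beyond the stated -50 to +50 range.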 Not stated in the record: the amount of reagent.

target gene | two-siRNA summed score (-2 to +2) | mean protection from cisplatin (shift in death) (%) | protection from cisplatin (shift in death), siRNA C (%) | protection from cisplatin (shift in death), siRNA D (%) | Outcome
LOC441171 | 0 | 4.7 | -3 | 12.4 | inactive
SLC25A35 | 1 | 8 | 20.2 | -4.3 | inactive
ZEB1 (zinc finger E-box binding homeobox 1) | 0 | 2.6 | 3.3 | 1.9 | inactive
RELN (reelin) | 0 | -9.4 | -20.2 | 1.3 | inactive
ABCB8 (ATP binding cassette subfamily B member 8) | -1 | -27.5 | -42.2 | -12.8 | inactive
FBXO46 (F-box protein 46) | 0 | -0.5 | 18.6 | -19.5 | inactive
ENPP4 (ectonucleotide pyrophosphatase/phosphodiesterase 4) | 0 | 3.9 | 3.9 | 4 | inactive
LOC93463 | 0 | 2.1 | 0.3 | 4 | inactive
IFIT1 (interferon induced protein with tetratricopeptide repeats 1) | 0 | -1.9 | -4.3 | 0.6 | inactive
NCBP2L (nuclear cap binding protein subunit 2 like) | -1 | -7.8 | 7.9 | -23.4 | inactive
SPACA4 (sperm acrosome associated 4) | 0 | 12.7 | 10.1 | 15.3 | inactive
TMEM59 (transmembrane protein 59) | 0 | 7.3 | 2.5 | 12.1 | inactive
KIAA0984 | 0 | -2.1 | 5.6 | -9.8 | inactive
KRT82 (keratin 82) | 0 | 1.8 | -7.1 | 10.7 | inactive
HPDL (4-hydroxyphenylpyruvate dioxygenase like) | 0 | 9.3 | 11.1 | 7.4 | inactive
WEE2-AS1 (WEE2 antisense RNA 1) | 0 | 0.3 | -10.3 | 10.9 | inactive
LOC441482 | -1 | 1.4 | -11.1 | 13.9 | inactive
BRI3 (brain protein I3) | 0 | -11.4 | -10.2 | -12.6 | inactive
LOC440817 | 0 | 18.4 | 27.3 | 9.5 | inactive
LOC389049 | 0 | 10.9 | 13.7 | 8.1 | inactive
MT2A (metallothionein 2A) | 0 | -4.5 | -32.1 | 23 | inactive
ZNF362 (zinc finger protein 362) | 0 | 3.1 | -6.4 | 12.5 | inactive
COL18A1-AS1 (COL18A1 antisense RNA 1) | 0 | 8.2 | 12.1 | 4.3 | inactive
SULT1A2 (sulfotransferase family 1A member 2) | 0 | 6 | 8.5 | 3.6 | inactive
NANOS1 (nanos C2HC-type zinc finger 1) | -2 | -11.4 | -15.3 | -7.4 | active
ANPEP (alanyl aminopeptidase, membrane) | -1 | -8.3 | 1.7 | -18.3 | inactive
TGFA (transforming growth factor alpha) | 0 | 8.9 | -4.1 | 21.9 | inactive
TBATA (thymus, brain and testes associated) | 0 | 4.7 | 3.2 | 6.2 | inactive
TPD52 (tumor protein D52) | 0 | 4 | 16.2 | -8.1 | inactive
LOC440981 (retired record) | 1 | 12 | 5.3 | 18.7 | inactive
VILL (villin like) | 0 | 1.1 | -4.5 | 6.8 | inactive
LOC441879 | 1 | 9.6 | 11.2 | 7.9 | inactive
AQP2 (aquaporin 2) | 0 | 12.5 | 14.3 | 10.7 | inactive
LOC440253 | 1 | 16.3 | 23.3 | 9.3 | inactive
SEMA3A (semaphorin 3A) | 1 | 15.1 | 14.9 | 15.4 | inactive
CAPN2 (calpain 2) | 0 | -4.7 | -0.7 | -8.7 | inactive
LOC440266 | 0 | 14.4 | 8.3 | 20.5 | inactive
OR4C46 (olfactory receptor family 4 subfamily C member 46) | 0 | 10.8 | 11 | 10.7 | inactive
H1-3 (H1.3 linker histone, cluster member) | 0 | -7.1 | -12 | -2.2 | inactive
BRIP1 (BRCA1 interacting DNA helicase 1) | 1 | 40.2 | 57.1 | 23.2 | inactive
GGH (gamma-glutamyl hydrolase) | 0 | 0.9 | -2.1 | 3.9 | inactive
TAS2R9 (taste 2 receptor member 9) | -1 | 5 | -12.6 | 22.7 | inactive
ZNF365 (zinc finger protein 365) | 0 | 8.6 | 2.1 | 15.1 | inactive
HABP4 (hyaluronan binding protein 4) | 0 | -3.1 | -1.2 | -5 | inactive
ZNF580 (zinc finger protein 580) | 0 | 19.7 | 27.2 | 12.1 | inactive
C1orf220 (chromosome 1 putative open reading frame 220) | 0 | 4.7 | 7.1 | 2.2 | inactive
TMEM140 (transmembrane protein 140) | 0 | -8.4 | 0.6 | -17.5 | inactive
DBH (dopamine beta-hydroxylase) | 0 | 0.6 | 2.3 | -1.1 | inactive
ZFR (zinc finger RNA binding protein) | 0 | 7.8 | 1.6 | 14 | inactive
ZNF653 (zinc finger protein 653) | 0 | -1.7 | -3.9 | 0.5 | inactive
ANKFN1 (ankyrin repeat and fibronectin type III domain containing 1) | 1 | 14.2 | 14.3 | 14 | inactive
OR6S1 (olfactory receptor family 6 subfamily S member 1) | 1 | 7.7 | -3.4 | 18.8 | inactive
NEGR1 (neuronal growth regulator 1) | 1 | 11.1 | 4.6 | 17.7 | inactive
ACTL9 (actin like 9) | 1 | 15 | 18.3 | 11.6 | inactive
MRPS5 (mitochondrial ribosomal protein S5) | 0 | -1.1 | -3.4 | 1.1 | inactive
LOC387930 | 0 | 15.9 | 8.1 | 23.6 | inactive
HS3ST5 (heparan sulfate-glucosamine 3-sulfotransferase 5) | 1 | 11.1 | 12.1 | 10.1 | inactive

Laid out differently: entries from further up.
target gene	two-siRNA summed score (-2 to +2)	mean protection from cisplatin (shift in death) (%)	protection from cisplatin (shift in death), siRNA C (%)	protection from cisplatin (shift in death), siRNA D (%)	Outcome
SLC25A35	1	8	20.2	-4.3	inactive
ZEB1 (zinc finger E-box binding homeobox 1)	0	2.6	3.3	1.9	inactive
RELN (reelin)	0	-9.4	-20.2	1.3	inactive
